Experiment [1] deals with Flag-GluA2 (wild type), expressed in N2a cells (human) (UniProt P42262). Nature of the experiment: co-IP; N2a cells co-transfected with Flag-GluA2 constructs and HA-GluA1 or HA-GluA3; control and SELENOK-KO cells, with or without a SELENOK overexpression plasmid; antibody on magnetic beads, Western blot.
The target in experiment [2] is Flag-GluA2 (wild type), expressed in HEK293 cells (human) (UniProt P42262). Nature of the experiment: co-IP; HEK293 cells co-expressing Flag-GluA2 and HA-DHHC6; antibody on magnetic beads, lysate, Western blot; which partner was precipitated is not told.

Protein sequences, listed by entry. Tags and fused reporters are not part of them. Residues count along the entry.
UniProt P42262, residues 25-883: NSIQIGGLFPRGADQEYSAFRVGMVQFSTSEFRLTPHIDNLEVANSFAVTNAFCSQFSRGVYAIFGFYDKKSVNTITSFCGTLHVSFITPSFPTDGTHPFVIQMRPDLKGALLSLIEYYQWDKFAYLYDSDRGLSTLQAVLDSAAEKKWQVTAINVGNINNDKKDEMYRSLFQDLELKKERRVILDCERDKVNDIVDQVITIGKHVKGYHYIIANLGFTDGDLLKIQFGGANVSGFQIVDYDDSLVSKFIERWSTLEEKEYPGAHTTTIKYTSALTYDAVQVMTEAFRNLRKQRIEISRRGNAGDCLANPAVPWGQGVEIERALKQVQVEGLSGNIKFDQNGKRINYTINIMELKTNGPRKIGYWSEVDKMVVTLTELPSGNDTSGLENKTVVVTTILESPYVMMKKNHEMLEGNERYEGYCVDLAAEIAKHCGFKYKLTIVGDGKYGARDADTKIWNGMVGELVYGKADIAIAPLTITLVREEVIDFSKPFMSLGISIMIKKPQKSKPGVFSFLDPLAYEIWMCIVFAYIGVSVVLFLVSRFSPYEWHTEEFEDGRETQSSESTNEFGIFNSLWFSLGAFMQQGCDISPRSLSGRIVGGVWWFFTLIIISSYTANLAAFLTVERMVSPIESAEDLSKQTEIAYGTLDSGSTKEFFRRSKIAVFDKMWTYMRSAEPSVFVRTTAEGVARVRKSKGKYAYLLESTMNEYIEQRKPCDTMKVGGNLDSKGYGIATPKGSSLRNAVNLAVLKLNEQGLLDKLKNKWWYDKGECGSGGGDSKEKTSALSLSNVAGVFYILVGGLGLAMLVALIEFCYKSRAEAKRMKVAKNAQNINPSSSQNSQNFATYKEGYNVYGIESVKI
UniProt P42263, residues 29-894: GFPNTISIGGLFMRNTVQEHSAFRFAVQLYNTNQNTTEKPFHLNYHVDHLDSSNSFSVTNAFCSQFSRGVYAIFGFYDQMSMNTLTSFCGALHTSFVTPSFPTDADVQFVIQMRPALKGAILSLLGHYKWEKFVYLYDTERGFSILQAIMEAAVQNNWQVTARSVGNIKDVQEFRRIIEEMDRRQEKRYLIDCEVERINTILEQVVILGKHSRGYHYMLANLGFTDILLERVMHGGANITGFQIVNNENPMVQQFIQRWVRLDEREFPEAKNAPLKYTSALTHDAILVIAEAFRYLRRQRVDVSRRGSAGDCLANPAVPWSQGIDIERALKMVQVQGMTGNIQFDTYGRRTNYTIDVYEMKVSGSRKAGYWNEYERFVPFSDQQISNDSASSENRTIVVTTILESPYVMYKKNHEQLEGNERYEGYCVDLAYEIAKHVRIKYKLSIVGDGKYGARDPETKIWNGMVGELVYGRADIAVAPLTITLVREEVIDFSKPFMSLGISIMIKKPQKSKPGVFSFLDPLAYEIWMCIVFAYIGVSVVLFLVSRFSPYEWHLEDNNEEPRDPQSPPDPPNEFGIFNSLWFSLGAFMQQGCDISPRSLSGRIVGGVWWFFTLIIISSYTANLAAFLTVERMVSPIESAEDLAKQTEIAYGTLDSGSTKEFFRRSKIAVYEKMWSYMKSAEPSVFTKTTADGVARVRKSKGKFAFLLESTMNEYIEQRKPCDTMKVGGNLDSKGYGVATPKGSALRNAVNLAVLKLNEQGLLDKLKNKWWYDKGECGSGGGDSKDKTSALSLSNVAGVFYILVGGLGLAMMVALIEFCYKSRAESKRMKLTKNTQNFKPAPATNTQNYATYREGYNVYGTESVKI

Results are given in words; binding and its absence hold for the method and conditions named. Binding seen in cells or lysates may run through a third protein. Some binding calls cover weakened binding; strength is not graded here. For some assays here: Where a sequence is shown, tags or fusion partners need not be part of it.

Consider “HA-GluA3 (from UniProt P42263 29-894) (receptor)”, for which the binding entry in experiment [1] was “binds”.

B1: HA-DHHC6 (enzyme, UniProt Q9H6R6 1-413)
chain: MGTFCSVIKFENLQELKRLCHWGPIIALGVIAICSTMAMIDSVLWYWPLHTTGGSVNFIMLINWTVMILYNYFNAMFVGPGFVPLGWKPEISQDTMYLQYCKVCQAYKAPRSHHCRKCNRCVMKMDHHCPWINNCCGYQNHASFTLFLLLAPLGCIHAAFIFVMTMYTQLYHRLSFGWNTVKIDMSAARRDPLPIVPFGLAAFATTLFALGLALGTTIAVGMLFFIQMKIILRNKTSIESWIEEKAKDRIQYYQLDEVFVFPYDMGSRWRNFKQVFTWSGVPEGDGLEWPVREGCHQYSLTIEQLKQKADKRVRSVRYKVIEDYSGACCPLNKGIKTFFTSPCTEEPRIQLQKGEFILATRGLRYWLYGDKILDDSFIEGVSRIRGWFPRKCVEKCPCDAETDQAPEGEKKNR
Regarding B1, the binding result in experiment [2] is listed as “binds”.

For the origin of these results see article PMC12446660.
